In US20070136897A1, “Nucleic acid molecules encoding hyperactive nucleoside di-phosphate kinase 2 and uses thereof” (priority 2005, published 2007):
Positions count from the first letter of the chain named. Names may count otherwise. These are yes or no findings as the source states them, for the method shown. Some binding calls cover weakened binding; strength is not graded here.

T1: purified native oat phytochrome A, Pfr form (oat) (UniProt P06593)
T1 sequence (looked up): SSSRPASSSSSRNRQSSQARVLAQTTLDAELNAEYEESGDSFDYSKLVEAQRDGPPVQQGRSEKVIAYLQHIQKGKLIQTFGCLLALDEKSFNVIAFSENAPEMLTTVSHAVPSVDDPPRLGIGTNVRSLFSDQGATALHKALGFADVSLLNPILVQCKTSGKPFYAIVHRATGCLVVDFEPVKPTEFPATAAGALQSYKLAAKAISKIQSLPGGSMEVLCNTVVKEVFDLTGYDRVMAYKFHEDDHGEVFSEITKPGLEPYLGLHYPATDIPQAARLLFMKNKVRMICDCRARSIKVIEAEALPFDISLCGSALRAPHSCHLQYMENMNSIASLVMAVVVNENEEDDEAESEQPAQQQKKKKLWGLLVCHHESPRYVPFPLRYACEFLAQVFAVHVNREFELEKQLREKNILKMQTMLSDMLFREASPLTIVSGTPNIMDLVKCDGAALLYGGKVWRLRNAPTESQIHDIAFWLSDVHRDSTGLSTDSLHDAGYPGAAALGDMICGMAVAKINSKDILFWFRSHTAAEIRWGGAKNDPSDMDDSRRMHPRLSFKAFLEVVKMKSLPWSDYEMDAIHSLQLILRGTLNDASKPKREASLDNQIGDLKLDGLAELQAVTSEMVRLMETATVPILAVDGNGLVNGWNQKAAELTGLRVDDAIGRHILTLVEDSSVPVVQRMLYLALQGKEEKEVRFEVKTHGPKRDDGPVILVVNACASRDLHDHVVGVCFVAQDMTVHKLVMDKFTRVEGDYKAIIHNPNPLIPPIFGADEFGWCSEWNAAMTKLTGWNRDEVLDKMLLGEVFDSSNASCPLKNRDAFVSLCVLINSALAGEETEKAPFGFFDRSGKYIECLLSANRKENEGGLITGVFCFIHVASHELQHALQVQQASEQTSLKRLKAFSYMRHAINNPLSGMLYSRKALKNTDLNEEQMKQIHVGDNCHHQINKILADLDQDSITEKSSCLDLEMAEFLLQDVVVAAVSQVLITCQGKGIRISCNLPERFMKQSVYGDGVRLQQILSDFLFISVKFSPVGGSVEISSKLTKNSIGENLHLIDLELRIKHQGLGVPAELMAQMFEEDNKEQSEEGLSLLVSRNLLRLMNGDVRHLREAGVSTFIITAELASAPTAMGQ

B1: Arabidopsis Nucleoside Di-Phosphate Kinase 2 (NDPK2), wild type (enzyme)
chain: ASSSAESGIFLPHLVASMEDVEETYIMVKPDGIQRGLVGEIISRFEKKGFKLIGLKMFQCPKELAEEHYKELSAKSFFLTLIEYITSGPVVCMAWEGVGVVASARKLIGKTDPLQAEPGTIRGDLAVQTGRNIVHGSDSPENGKREIGLWFKEGELCKWDSALATWLRE
modifications: 14C-labeled methionine incorporated (FIG. 1 binding assay)
B2: NDPK2 C-terminal deletion mutant L225Stop (enzyme)
chain: MEDVEETYIMVKPDGIQRGLVGEIISRFEKKGFKLIGLKMFQCPKELAEEHYKELSAKSFFLTLIEYITSGPVVCMAWEGVGVVASARKLIGKTDPLQAEPGTIRGDLAVQTGRNIVHGSDSPENGKREIGLWFKEGELCKWDSA
B3: NDPK2 kinase site mutant H197C (enzyme)
chain: B1 chain with H135C
B4: NDPK2 Kpn loop mutant P175S (enzyme)
chain: B1 chain with P113S
B5: NDPK2 C-terminal deletion mutant R230Stop (enzyme)
chain: MEDVEETYIMVKPDGIQRGLVGEIISRFEKKGFKLIGLKMFQCPKELAEEHYKELSAKSFFLTLIEYITSGPVVCMAWEGVGVVASARKLIGKTDPLQAEPGTIRGDLAVQTGRNIVHGSDSPENGKREIGLWFKEGELCKWDSALATWL

Key:
[1] = target: T1, purified native oat phytochrome A, Pfr form (oat); test: immunoprecipitation of native oat phyA with 14C-methionine-labeled NDPK2, scintillation counting
[2] = target: T1, purified native oat phytochrome A, Pfr form (oat); test: immunoprecipitation with native oat phyA, western blot

Binder | binding [1] | binding [2]
B1 | binds | –
B2 | – | binds
B3 | – | binds
B4 | – | binds
B5 | – | binds
